Measurements taken from publication doi:10.1101/346619.
These are yes or no findings as the source states them, for the method shown. In cells and extracts the contact can be indirect. A yes stands for co-enrichment or nearness to the bait. Other partners may have been found. Sequences can lack the tags named with a protein.

Chains of the proteins cited; added tags and fusions are not shown.
UniProt Q92560: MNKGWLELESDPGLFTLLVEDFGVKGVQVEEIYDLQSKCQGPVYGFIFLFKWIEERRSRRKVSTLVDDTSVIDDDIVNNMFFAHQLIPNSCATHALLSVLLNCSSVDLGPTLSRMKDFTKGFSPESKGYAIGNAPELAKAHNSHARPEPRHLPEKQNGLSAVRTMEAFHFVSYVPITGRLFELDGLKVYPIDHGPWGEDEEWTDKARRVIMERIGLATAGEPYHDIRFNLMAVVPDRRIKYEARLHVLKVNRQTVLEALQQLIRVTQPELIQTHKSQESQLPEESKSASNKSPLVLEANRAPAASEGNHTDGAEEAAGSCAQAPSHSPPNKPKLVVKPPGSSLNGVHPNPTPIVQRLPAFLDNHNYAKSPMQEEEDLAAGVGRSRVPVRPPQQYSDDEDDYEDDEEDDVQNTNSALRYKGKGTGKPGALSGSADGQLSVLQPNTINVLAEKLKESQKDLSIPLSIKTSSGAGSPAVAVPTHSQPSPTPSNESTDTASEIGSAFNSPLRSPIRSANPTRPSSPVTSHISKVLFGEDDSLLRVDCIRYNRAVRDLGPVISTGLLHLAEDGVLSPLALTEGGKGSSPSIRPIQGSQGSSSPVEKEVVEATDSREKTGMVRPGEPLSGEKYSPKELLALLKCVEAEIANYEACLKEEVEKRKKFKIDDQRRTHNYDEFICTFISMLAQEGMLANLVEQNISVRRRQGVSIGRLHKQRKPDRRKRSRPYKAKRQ
UniProt O75376: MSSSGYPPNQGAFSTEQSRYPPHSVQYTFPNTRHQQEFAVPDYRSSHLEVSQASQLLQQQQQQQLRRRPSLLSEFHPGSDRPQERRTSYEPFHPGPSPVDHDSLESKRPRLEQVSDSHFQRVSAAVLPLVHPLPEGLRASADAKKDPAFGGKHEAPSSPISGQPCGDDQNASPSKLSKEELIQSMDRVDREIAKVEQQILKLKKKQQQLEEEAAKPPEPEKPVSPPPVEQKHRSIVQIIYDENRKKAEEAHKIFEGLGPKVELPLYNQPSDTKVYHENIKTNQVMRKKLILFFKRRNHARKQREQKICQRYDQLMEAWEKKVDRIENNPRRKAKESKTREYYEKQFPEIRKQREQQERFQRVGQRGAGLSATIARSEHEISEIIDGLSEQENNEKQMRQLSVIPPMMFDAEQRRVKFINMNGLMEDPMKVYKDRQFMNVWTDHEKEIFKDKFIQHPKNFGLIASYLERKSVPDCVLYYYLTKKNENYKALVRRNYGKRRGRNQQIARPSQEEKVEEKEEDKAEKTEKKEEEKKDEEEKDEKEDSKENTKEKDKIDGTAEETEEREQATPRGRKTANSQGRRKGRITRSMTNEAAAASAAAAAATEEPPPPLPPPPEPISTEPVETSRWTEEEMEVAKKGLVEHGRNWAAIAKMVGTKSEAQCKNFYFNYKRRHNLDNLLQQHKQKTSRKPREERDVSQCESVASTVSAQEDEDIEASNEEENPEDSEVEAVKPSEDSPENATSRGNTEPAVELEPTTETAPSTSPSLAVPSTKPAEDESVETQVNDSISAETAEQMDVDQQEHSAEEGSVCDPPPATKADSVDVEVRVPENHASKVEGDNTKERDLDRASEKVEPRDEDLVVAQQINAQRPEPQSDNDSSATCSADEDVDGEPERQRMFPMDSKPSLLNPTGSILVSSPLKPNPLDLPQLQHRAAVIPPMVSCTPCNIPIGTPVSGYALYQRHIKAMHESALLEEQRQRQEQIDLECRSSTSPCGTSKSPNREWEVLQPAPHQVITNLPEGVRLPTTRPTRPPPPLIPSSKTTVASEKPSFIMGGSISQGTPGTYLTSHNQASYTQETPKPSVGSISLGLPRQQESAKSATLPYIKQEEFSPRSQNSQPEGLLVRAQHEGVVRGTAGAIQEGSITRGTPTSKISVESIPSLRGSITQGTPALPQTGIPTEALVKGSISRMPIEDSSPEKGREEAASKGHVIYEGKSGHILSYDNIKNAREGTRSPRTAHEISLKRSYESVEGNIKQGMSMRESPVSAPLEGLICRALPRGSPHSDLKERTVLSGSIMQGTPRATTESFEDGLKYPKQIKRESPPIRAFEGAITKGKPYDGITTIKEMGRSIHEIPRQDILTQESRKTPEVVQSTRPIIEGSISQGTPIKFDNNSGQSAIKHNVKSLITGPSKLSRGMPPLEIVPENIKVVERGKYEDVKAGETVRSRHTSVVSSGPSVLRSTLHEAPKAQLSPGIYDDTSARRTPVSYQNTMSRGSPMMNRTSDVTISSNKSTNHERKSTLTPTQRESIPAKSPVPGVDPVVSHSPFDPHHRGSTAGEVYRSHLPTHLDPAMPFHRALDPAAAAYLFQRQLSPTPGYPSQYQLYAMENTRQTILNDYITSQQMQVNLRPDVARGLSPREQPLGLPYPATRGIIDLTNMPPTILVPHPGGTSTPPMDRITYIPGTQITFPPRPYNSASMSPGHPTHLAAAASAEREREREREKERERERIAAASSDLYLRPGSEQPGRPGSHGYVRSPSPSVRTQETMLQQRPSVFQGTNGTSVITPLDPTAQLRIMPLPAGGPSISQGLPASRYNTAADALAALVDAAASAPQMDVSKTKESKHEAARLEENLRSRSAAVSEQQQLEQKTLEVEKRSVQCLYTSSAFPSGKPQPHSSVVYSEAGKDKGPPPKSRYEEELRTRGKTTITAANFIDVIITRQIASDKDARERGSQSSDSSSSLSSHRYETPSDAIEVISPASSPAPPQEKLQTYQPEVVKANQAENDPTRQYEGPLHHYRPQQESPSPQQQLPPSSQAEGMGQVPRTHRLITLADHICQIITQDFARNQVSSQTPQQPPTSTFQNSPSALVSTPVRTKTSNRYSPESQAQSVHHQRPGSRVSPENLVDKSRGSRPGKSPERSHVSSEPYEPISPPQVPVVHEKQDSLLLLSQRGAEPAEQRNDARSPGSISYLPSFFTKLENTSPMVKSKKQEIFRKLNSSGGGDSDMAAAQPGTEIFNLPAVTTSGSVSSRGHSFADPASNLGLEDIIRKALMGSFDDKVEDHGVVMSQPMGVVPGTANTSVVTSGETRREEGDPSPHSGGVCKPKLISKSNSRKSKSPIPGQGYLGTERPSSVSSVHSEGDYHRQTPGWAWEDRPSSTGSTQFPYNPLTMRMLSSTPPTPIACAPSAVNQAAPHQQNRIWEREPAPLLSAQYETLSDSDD

These substances were tested against T1, TR4-BirA* fusion protein (human) (UniProt P49116) (assay: proximity labelling).
T1 sequence: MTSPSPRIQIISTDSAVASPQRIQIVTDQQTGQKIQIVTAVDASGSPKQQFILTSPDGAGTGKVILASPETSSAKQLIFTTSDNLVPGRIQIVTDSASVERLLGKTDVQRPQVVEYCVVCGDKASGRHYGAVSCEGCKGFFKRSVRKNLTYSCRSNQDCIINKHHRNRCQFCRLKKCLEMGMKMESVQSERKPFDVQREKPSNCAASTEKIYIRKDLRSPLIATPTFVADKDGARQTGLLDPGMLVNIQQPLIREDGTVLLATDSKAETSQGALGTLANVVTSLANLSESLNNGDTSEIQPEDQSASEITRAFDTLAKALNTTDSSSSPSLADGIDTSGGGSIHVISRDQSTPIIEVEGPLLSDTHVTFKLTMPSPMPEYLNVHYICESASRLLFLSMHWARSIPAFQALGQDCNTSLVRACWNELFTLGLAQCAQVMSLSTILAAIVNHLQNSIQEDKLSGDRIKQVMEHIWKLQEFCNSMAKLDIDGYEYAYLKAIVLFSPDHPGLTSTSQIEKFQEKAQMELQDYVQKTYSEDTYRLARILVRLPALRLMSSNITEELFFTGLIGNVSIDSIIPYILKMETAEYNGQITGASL

| Substance | binding |
| --- | --- |
| BRCA1 associated protein-1 (BAP1), endogenous (from UniProt Q92560 1-729) (enzyme) | binds |
| HCF1, endogenous (human (endogenous in HUDEP-2)) | binds |
| nuclear receptor corepressor-1 (NCoR1), endogenous (from UniProt O75376 1-2440) | binds |
